Results on one sequence are retold here after paper PMC7813835, “Structure of SRSF1 RRM1 bound to RNA reveals an unexpected bimodal mode of interaction and explains its involvement in SMN1 exon7 splicing”.

Amino acid sequences for entries named in this document (tags omitted). Residues count along the entry.
UniProt Q07955, 1-97 F58A: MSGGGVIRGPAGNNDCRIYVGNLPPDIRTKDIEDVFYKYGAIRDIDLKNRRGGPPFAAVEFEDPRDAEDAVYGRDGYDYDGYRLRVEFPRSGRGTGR
UniProt Q07955, 1-97 Y19A: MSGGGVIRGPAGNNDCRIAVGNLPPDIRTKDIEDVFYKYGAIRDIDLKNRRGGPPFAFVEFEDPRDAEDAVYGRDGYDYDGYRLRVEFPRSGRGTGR
UniProt Q07955, 1-97 R17A: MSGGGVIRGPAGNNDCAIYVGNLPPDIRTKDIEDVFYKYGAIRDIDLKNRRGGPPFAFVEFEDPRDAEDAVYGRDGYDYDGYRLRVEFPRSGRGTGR
UniProt Q07955, 1-97 K48A: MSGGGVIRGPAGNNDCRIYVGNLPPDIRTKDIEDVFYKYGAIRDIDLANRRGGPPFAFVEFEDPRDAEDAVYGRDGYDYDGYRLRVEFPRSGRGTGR
UniProt Q07955, 1-97 F56A: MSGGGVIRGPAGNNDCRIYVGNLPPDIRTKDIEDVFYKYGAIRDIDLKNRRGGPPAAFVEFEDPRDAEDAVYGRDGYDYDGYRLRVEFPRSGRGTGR

For some assays here: A negative result means that nothing was seen under these conditions. At least one verdict rests on a figure or table, not on a statement of the authors. For some assays here: For at least one entry, the source does not settle the construct or the ends of the probe. For some assays here: Weaker means in comparison with the reference protein, sequence or condition of that experiment.

Common to all, as to assay: NMR
Series [1] addresses SRSF1 RRM1 F58A (human) (UniProt Q07955). The note with it: no perturbation, text says RNA, legend ssDNA; NMR buffer: 50 mM L-Glu, 50 mM L-Arg, 0.05% beta-mercaptoethanol, 20 mM Na2HPO4 pH 7 (RRM1+2: plus 150 mM KCl, 1.5 mM MgCl2, 0.2 mM EDTA); NMR and ITC at 40 C; recombinant protein; residues 1-97; protein details: N-terminal GB1-6xHis; single-stranded DNA.
In series [2] the target is SRSF1 RRM1 Y19A (human) (UniProt Q07955). The note with it: no perturbation, text says RNA, legend ssDNA; NMR buffer: 50 mM L-Glu, 50 mM L-Arg, 0.05% beta-mercaptoethanol, 20 mM Na2HPO4 pH 7 (RRM1+2: plus 150 mM KCl, 1.5 mM MgCl2, 0.2 mM EDTA); NMR and ITC at 40 C; recombinant protein; residues 1-97; protein details: N-terminal GB1-6xHis; single-stranded DNA.
The target of series [3] is SRSF1 RRM1 R17A (human) (UniProt Q07955). The note with it: text says RNA, legend ssDNA; NMR buffer: 50 mM L-Glu, 50 mM L-Arg, 0.05% beta-mercaptoethanol, 20 mM Na2HPO4 pH 7 (RRM1+2: plus 150 mM KCl, 1.5 mM MgCl2, 0.2 mM EDTA); NMR and ITC at 40 C; recombinant protein; residues 1-97; protein details: N-terminal GB1-6xHis; single-stranded DNA.
The target in series [4] is SRSF1 RRM1 K48A (human) (UniProt Q07955). The note with it: text says RNA, legend ssDNA; NMR buffer: 50 mM L-Glu, 50 mM L-Arg, 0.05% beta-mercaptoethanol, 20 mM Na2HPO4 pH 7 (RRM1+2: plus 150 mM KCl, 1.5 mM MgCl2, 0.2 mM EDTA); NMR and ITC at 40 C; recombinant protein; residues 1-97; protein details: N-terminal GB1-6xHis; single-stranded DNA.
The target in series [5] is SRSF1 RRM1 F56A (human) (UniProt Q07955). The note with it: no perturbation, text says RNA, legend ssDNA; NMR buffer: 50 mM L-Glu, 50 mM L-Arg, 0.05% beta-mercaptoethanol, 20 mM Na2HPO4 pH 7 (RRM1+2: plus 150 mM KCl, 1.5 mM MgCl2, 0.2 mM EDTA); NMR and ITC at 40 C; recombinant protein; residues 1-97; protein details: N-terminal GB1-6xHis; single-stranded DNA.

With AACAAA [AACAAA ssDNA], the binding result is recorded as “no binding” in series [1]; “no binding” in series [2]; “binds more weakly” in series [3]; “binds more weakly” in series [4]; “no binding” in series [5].
